From PMC10163288
The other results are listed elsewhere or left out.

B1: il2ra_site2_3nfp_normal_mot_HHH_b1_03236_af2_000000201_0001_37_52_H_._HHH_b2_04798_af2_0001_0000100002_0000001_1 (protein)
chain: SSSSSEEVEELLEELKRAIEEGDEELARKLIRKLVELAFENDDHELFAIVNELAELFYRRFSSSS
B2: il2ra_site1_3nfp_sap_14_mot_HHH_b2_03420_af2_000000062_0001_42_56_H_._437ce1e4c44253f5d945988760af7e00_0001_af2_0001_0000500029_0000001_1_0001 (protein)
chain: SDEYLERFIEDALRRNANVDHVEVEVRDHHIHVTVEGTDEAAEEAEEIAKRFAELSNVPLTFTTL
B3: il2ra_site1_2b5i_normal_mot_HHH_b2_04910_000000118_0001_1_19_H_._HHH_b1_07584_af2_0001_0000100006_0000001_0_af2pred_dldesign_0_af2pred (protein)
chain: SSSSSTPAELFRKKFTEANKLKQAGKEEEAKKVLEELLEELKKAGKAYLVKIVEIALSELSSSSS
B4: il2ra_site1_3nfp_sap_17_mot_HHH_b1_03125_af2_000000134_0001_40_57_H_._efb1e6a814c01858843eeca3a22dd67d_0001_af2_0001_0000200008_0000001_0_0001_af2pred_0001_af2p … (protein)
chain: TVLEFLARAVANAPDPEKAARHVIRAFRRSAPDPEVVEEFVRKIIELLEELGNPEAAKILEELLK
B5: il2ra_site1_2b5i_normal_mot_f5ff40796168375b462bec8614a1db4a_0001_1_000000138_0001_53_65_H_._HHH_b2_02707_0001_0000100003_0000001_0_af2pred_dldesign_0_af2pred (protein)
chain: SSSSSALELVQELLEEAKRLKKENKPLEVKKLLTLARRIARRAEDAEALALVEKVEAELKKSSSS
B6: il2ra_site2_2erj_sap_23_mot_HHH_b1_07741_000000192_0001_1_20_H_._HHH_b2_04348_0001_0000100001_0000001_0_0001 (protein)
chain: SSSSDTEEEVEKVLEEAREAYEEGDLRRVYELAVEALRIASENNDDEALRLVREFFEEIASSSSS
B7: il2ra_site1_1z92_sap_25_mot_HHH_b2_05734_000000004_0001_1_18_H_._ems_3hM_3395_0001_0000100008_0000001_0_0001_af2pred_dldesign_0_af2pred (protein)
chain: AEEIEKLIIDALKRAGGDAEKAIEILKEEYEKTKDPLYRDAYIILKKLVKHKSNELDHAIEQALE
B8: il2ra_site1_2b5i_normal_mot_2cbe48e66a1f39b3fed734b245ab0a04_0001_000000015_0001_17_31_H_._HHH_b2_02007_0001_0000200015_0000001_0_af2pred_dldesign_0_af2pred (protein)
chain: SSSSSDPEALRAEIERLIEEAKTLKDPIEQERVLSRALFLARKIGDAEWIARVEAVYNELSSSSS
B9: il2ra_site1_3nfp_normal_mot_ems_3hM_3354_af2_000000165_0001_44_63_H_._HHH_b1_00853_af2_0001_0000400027_0000001_0 (protein)
chain: SSSSDRADKFLEQLAREAFENNDRLQLRALARIVEEALRAFGDPTAEELLELIRELLEELSSSSS
B10: il2ra_site2_3nfp_normal_mot_HHH_b1_01086_000000225_0001_20_36_H_._HHH_b2_03611_0001_0000300035_0000001_0 (protein)
chain: SSSSSEAEEELERLLRELEELLKRDPEEAHRLSARALNLAYEARDFEIFARLADISFALASSSSS
B11: il2ra_site1_1z92_normal_mot_HHH_b1_02849_000000017_0001_22_39_H_._HHH_b2_00342_af2_0001_0000200038_0000001_0 (protein)
chain: SSSSSSLEEAVEILLQAARRAEEAGDPERAEEFLRFAFEYAKDLGSPLLEEVEELLREIDSSSSS
B12: il2ra_site2_2erj_sap_18_mot_af86707857d369f3e1d85dcabc5f9321_0001_000000201_0001_14_29_H_._HHH_b2_07982_0001_0000700014_0000001_0_0001 (protein)
chain: SSSSSDELHRAYELAALLLHLVARNDREEFEEIAEEFREIVERLNSDNAREFLEQMEKQLSSSSS
B13: il2ra_site2_2erj_sap_21_mot_6ec3e94b46d95805cdcdc10c0c108f03_0001_af2_000000040_0001_36_50_H_._HHH_b2_04396_0001_0000200006_0000001_0_0001 (protein)
chain: SSSSSEWEEAARLSVLLLEAARKNDEELLEELRREAEELIKEIKNPAARRYLEFALRDVERSSSS
B14: il2ra_site2_3nfp_normal_mot_HHH_b2_04451_000000238_0001_21_37_H_._HHH_b2_06282_af2_0001_0000700018_0000001_0 (protein)
chain: SSSSDEEERLEQLLEEAERLIEEGDRYEALEVVAEATELALRLNDEEVDRILLELFELIQSSSSS
B15: il2ra_site1_3nfp_normal_mot_HHH_b1_06850_000000137_0001_20_36_H_._HEEHE_2134_0001_0000200026_0000001_0 (protein)
chain: SDEYLSEAIEKDLEERANVDHVEVEVSNQHIHVTVEGTDEAAQEAEEIAERLAKTANIPLTFTTL
B16: il2ra_site2_2erj_normal_mot_HHH_b2_03913_af2_000000182_0001_1_19_H_._HHH_b2_00910_af2_0001_0000200004_0000001_0 (protein)
chain: SSSSQEAAELFAEAWREAAKLFRNGNPEEAERVLEEYAELVRELGDERALEAIERALKFLTSSSS
B17: il2ra_site1_2b5i_normal_mot_HHH_b2_07442_af2_000000069_0001_1_16_H_._HHH_b2_08090_af2_0002_0000200011_0000001_1_af2pred_0001_af2pred_1 (protein)
chain: SSSSSDDDHRVQELYREASELYRNGNPEEARKVLEEALEIAEEGGDPRLREDVERFIEMASSSSS
B18: il2ra_site1_2b5i_sap_22_mot_HHH_b1_01934_af2_000000023_0001_42_56_H_._98c847d54cb06549f1b43bebfb1599e3_0001_af2_0001_0000100001_0000001_0_0001_af2pred_dldesign_ … (protein)
chain: SSSSSLFDRVEELYKKALELYKKGKKEEAKELLEEALRLAREAKDEKIAADLEYLIEYLKSSSSS
B19: il2ra_site2_3nfp_sap_29_mot_HHH_b1_06797_000000164_0001_24_40_H_._HHH_b1_04575_0001_0000200009_0000001_0_0001 (protein)
chain: TRELSNRIFELARRGDPVAWLLYALLADVATEGDPELQRLLEEALEALERGNPEEAKEIVEEALR

Each binder was assayed against il2ra, P01589 (assay: yeast display titration).

Binder | apparent Kd
B1 | inactive: no binding seen
B2 | inactive: no binding seen
B3 | inactive: no binding seen
B4 | inactive: no binding seen
B5 | inactive: no binding seen
B6 | inactive: no binding seen
B7 | inactive: no binding seen
B8 | inactive: no binding seen
B9 | inactive: no binding seen
B10 | inactive: no binding seen
B11 | inactive: no binding seen
B12 | inactive: no binding seen
B13 | inactive: no binding seen
B14 | inactive: no binding seen
B15 | inactive: no binding seen
B16 | inactive: no binding seen
B17 | inactive: no binding seen
B18 | inactive: no binding seen
B19 | inactive: no binding seen

Copied from above for reference:
Binder | apparent Kd
B12 | inactive: no binding seen
B13 | inactive: no binding seen
